From patent publication US20090170768A1, “WATER-SOLUBLE CARBON NANOTUBE COMPOSITIONS FOR DRUG DELIVERY AND MEDICINAL APPLICATIONS” (William Marsh Rice University, priority 2007, published 2009)

Assay: Paclitaxel solubilization in water with or without PEG-functionalized carbon nanotubes
Details: PEG-functionalized carbon nanotube solution, ethanol removed by evaporation

CC(=O)O[C@H]1C(=O)[C@@]2(C)[C@H]([C@H](OC(=O)c3ccccc3)[C@]3(O)C[C@H](OC(=O)[C@H](O)[C@@H](NC(=O)c4ccccc4)c4ccccc4)C(C)=C1C3(C)C)[C@]1(OC(C)=O)CO[C@@H]1C[C@@H]2O [PACLITAXEL, paclitaxel]
solubility after ethanol removal: remains in solution
